Experimental data from the supplement of paper PMC3334620.
In all, about 33,000 sequences were measured (“E-score (-0.5 to 0.5)”: median about -0.0014, highest 2% from about 0.25 on). This is one part of the list.

These sequences were tested against T1, Cad1 (UniProt P24813) (assay: PBM E-score (8-mer binding enrichment) (E-score (-0.5 to 0.5)); higher = stronger / more preferred TF binding). Conditions: protein concentration: 100 nM; construct: GST-full length.
T1 sequence: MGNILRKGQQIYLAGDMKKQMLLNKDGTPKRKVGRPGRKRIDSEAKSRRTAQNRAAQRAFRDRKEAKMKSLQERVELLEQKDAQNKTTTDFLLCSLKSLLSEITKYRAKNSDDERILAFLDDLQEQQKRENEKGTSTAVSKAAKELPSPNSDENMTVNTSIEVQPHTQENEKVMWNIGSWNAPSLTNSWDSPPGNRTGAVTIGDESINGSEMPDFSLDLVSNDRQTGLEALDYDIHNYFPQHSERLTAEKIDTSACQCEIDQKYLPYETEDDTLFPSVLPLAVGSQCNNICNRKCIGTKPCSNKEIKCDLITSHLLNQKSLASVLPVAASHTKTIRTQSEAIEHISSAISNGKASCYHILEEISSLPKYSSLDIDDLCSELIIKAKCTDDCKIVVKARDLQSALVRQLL
Summary of the method: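 The E-score, a modified Wilcoxon-Mann-Whitney statistic, was computed by the Universal PBM Analysis Suite for every ungapped eight-base word pooled with its reverse complement. Scans behind it were normalised with masliner after bound GST-tagged yeast transcription factors were detected with fluorescent anti-GST. The proteins, at about 100-200 nM, had been applied to universal all-10-mer Agilent arrays made double-stranded by primer extension.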

Row | Sequence | PBM E-score
1 | GAACAAAA | 0.274
2 | TCTTTGAA | -0.0617
3 | CACTATCA | -0.0292
4 | TAGGCTAA | 0.0308
5 | GTAGTGAA | 0.0761
6 | CGCTCCGC | -0.0708
7 | CCAGCACA | -0.0411
8 | CACAAGTG | -0.154
9 | AATCTGCA | 0.0201
10 | CACGCGAA | 0.0527
11 | AGAGGTAT | 0.0452
12 | ATCCTTTA | 0.0155
13 | ATTTATGA | 0.193
14 | ATGATCGG | -0.0294
15 | ACGGTTAA | -0.0408
16 | GTGTATGA | -0.0775
17 | TCCACCCA | -0.204
18 | GAGAGTCA | -0.12
19 | ACGGGATC | -0.0506
20 | TGTGAGAA | 0.134
21 | CGGCCCCC | -0.304
22 | CTTTAGGA | -0.188

Row | Sequence | PBM E-score
23 | TGTTGAAA | 0.135
24 | CTAACCCA | -0.0318
25 | TAAGTCTA | -0.204
26 | GCACTGAA | -0.00339
27 | ATGTAGTA | 0.186
28 | ATCAGCTC | 0.0714
29 | ACCATCAT | -0.128
30 | GTTAAATA | -0.0784
31 | GGGATTTA | 0.0767
32 | ATGAGCTA | 0.039
33 | AAGCTGTG | 0.0994
34 | AGTATGTG | 0.0343
35 | GCCGCTAC | 0.0123
36 | CACGTAAC | -0.0431
37 | CAGCACGA | 0.0762
38 | GAACGGCA | 0.122
39 | CCCAGAAC | -0.0556
40 | AGCGCGAC | 0.106
41 | ATTTCTAA | 0.16
42 | ATTGGGTC | -0.0003
43 | CTAGCTAA | -0.0595
44 | ACCGCTCG | -0.14

Row | Sequence | PBM E-score
45 | GTTGAGTA | 0.027
46 | CCATAACA | 0.106
47 | AGTCTTAA | -0.19
48 | CATCAAGC | 0.0307
49 | AGTCCAGC | -0.112
50 | ATTCGGCA | -0.0535
51 | AATCCTAC | -0.115
52 | ATGAAACC | 0.159
53 | CGAGGTTC | 0.0555
54 | AGGTTACC | 0.193
55 | CGATTCCA | -0.0248
56 | AACATTCC | 0.0116
57 | AACCTTTG | -0.0691
58 | GGCCGCCC | -0.16
59 | AAGCGTCA | 0.156
60 | GGTTAACC | -0.0963
61 | CGGAGTTC | 0.0231
62 | AATTGTGA | 0.104
63 | AGTCCCAA | -0.0249
64 | ATATGAAC | 0.12
65 | CCAGTGAC | -0.0698
66 | ACCGGCAT | 0.0745

2 records picked at random from those above:
Row | Sequence | PBM E-score
44 | ACCGCTCG | -0.14
55 | CGATTCCA | -0.0248

Remaining list, next part.

Row | Sequence | PBM E-score
67 | CAGATTGG | -0.207
68 | GTCACGGA | 0.0544
69 | AGAGAGCG | -0.166
70 | CACCAAGC | -0.113
71 | ATGGGGGC | -0.349
72 | CAGTCCCC | -0.294
73 | GGTCTGTA | 0.0314
74 | AAGATACA | 0.187
75 | AAGAAGTA | 0.12
76 | ATATGGGG | -0.0624
77 | GTACGGCA | -0.0302
78 | GCGGACCC | -0.221
79 | CAACGGAA | 0.22
80 | CACAAATG | -0.0179
81 | ACTAGACG | -0.0634
82 | CTCGCACC | -0.0697
83 | AACCAGGC | -0.107
84 | TCGTGAGA | -0.0047
85 | TCAAGTCA | 0.053
86 | AAAGGCGC | 0.0944

5 entries from above, in CSV form.
Row,Sequence,PBM E-score
77,GTACGGCA,-0.0302
78,GCGGACCC,-0.221
83,AACCAGGC,-0.107
84,TCGTGAGA,-0.0047
85,TCAAGTCA,0.053
